Laboratory results taken from the supplement of paper PMC3334620.
The full ranking holds about 33,000 sequences; the median of “E-score (-0.5 to 0.5)” is about -0.0034, and the highest 2% start at about 0.25. The list shows a part of the results.

biological target: T1, Yap3 (UniProt P38749); experiment: PBM E-score (8-mer binding enrichment) (E-score (-0.5 to 0.5)); higher = stronger / more preferred TF binding; conditions: protein concentration: 100 nM; construct: GST-full length
T1 sequence: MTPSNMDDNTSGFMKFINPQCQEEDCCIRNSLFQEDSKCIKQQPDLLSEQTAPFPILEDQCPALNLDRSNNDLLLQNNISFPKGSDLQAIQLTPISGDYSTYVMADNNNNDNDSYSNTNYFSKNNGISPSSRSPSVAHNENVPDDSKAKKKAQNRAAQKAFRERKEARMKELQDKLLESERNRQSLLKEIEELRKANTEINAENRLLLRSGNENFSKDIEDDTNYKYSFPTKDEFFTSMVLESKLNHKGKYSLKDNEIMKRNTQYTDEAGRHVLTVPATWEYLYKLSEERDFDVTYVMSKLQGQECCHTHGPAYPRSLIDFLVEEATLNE
Procedure, shortened: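 E-scores (a modified Wilcoxon-Mann-Whitney statistic) were assigned by the Universal PBM Analysis Suite to every ungapped eight-base word pooled with its reverse complement. The input came from universal all-10-mer Agilent arrays made double-stranded by primer extension and probed with GST-tagged yeast transcription factors at about 100-200 nM. Fluorescent anti-GST detected bound protein, and masliner normalised the scans.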

Sequence | PBM E-score
AGAGTCCC | -0.244
ATGTGCAC | -0.00048
CCCCGATC | -0.327
ACGAGGCT | 0.117
CTAATGGA | -0.0109
CTATATTC | 0.151
GGGCATGA | -0.136
ATTAACCA | 0.027
CCGAGCAG | -0.0496
AACACCAG | -0.165
AACGAGGT | -0.012
GTGTTTTA | 0.0994
CCTCCGGA | -0.139
TCAGCAGA | -0.00622
AGTACACT | -0.00694
GTTCCGAA | 0.182
TAGGGGGA | -0.202
TTTCAAAA | 0.169
AACTGGTA | 0.00808
GCTACAAC | -0.0246
TAGCGGGA | -0.192
AAGTGAGA | 0.00798
TAACTGCA | 0.172
CTACAATA | 0.19

Four entries drawn at random from those above:
Sequence | PBM E-score
TTTCAAAA | 0.169
CTATATTC | 0.151
GCTACAAC | -0.0246
GTTCCGAA | 0.182

Continuation:

Sequence | PBM E-score
CGCTCGTA | -0.0236
TCGATGAA | 0.0106
ATCATCAA | 0.123
ATTCTCTC | -0.00402
AGTTAAAT | 0.0662
GTCAAGCA | -0.29
CGGTCTCA | -0.167
GTCCCTCA | -0.112
ACAGTAAG | 0.153
ATCTCCAA | 0.131
CCGGAAGC | -0.101
AGTCGCTG | -0.0975
TAAGTGGA | 0.0566
ATTCAACC | -0.0129
GCGGTAGC | 0.121
ATACGGTA | 0.134
ATACCACA | 0.108
GAGTAGGC | -0.109
CACCTGGC | -0.0894
AGGTGCCA | -0.128
CTTGATGC | -0.174
AGATGGAG | 0.0683
GAAAAAAC | 0.255
CTTTCTCA | 0.165

As a short view, part of the list above:
Sequence | PBM E-score
AGGTGCCA | -0.128
CTTGATGC | -0.174
AGATGGAG | 0.0683

Further records

Sequence | PBM E-score
ATAATGAT | 0.116
AAGAACTT | 0.0679
ACCCAACC | -0.0377
TCGGCAGA | -0.0575
GAGACGAA | -0.0555
GCGTCTCC | -0.0737
CTTCGTTC | 0.0138
CGAGACCC | 0.0569
CGTGTTCC | 0.0154
CCAGGTGA | -0.0411
ACCGCTTC | -0.241
AGGGGGAC | -0.337
ACCTAACC | 0.0916
CCAATCTC | 0.137
AAATCAAG | 0.108
ACATGACA | 0.177
CCAAATAA | 0.14
GTATCTTA | 0.267
ATGGTATG | 0.00998
AGCCATGG | -0.203
GCAGGTGA | -0.06
CTCATGTC | -0.164
AACGGCTT | -0.133
CAGATGAG | 0.0576

Sequence | PBM E-score
TACGGCTA | -0.0482
AGCCTTCC | -0.312
ATCGGTTC | -0.161
CCGATCAC | 0.0564
CTAGGGCC | -0.128
GTTCGTCA | -0.186
AGCCCTGC | -0.26
AGGGCCAT | -0.195
CGTGGGGA | -0.12
TAAACCGA | 0.00348
CAGACGCG | -0.185
CAGGCCAC | -0.161
AGTAGATG | 0.0925
CGGGCCCG | 0.0296
CCGCTAAG | -0.0432
AGCTCCGA | -0.125
AGCTTGGC | -0.207
ACTCATTG | -0.0888
AGCACGCG | -0.0483
ACCGGGAA | 0.0397
CTATTCAA | 0.101
AGGGGTAC | -0.126
